PubChem BioAssay AID1224830, NIAID, 2016

- Screen: 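Regulators of TLR4 signalling towards TNF-alpha in macrophage-like cells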 (primary screen)
- System: human THP-1 monocytic leukaemia cells, TNF dual-luciferase reporter clone, PMA-differentiated to macrophage-like cells
- Reagent: siRNA pool against human genes, 50 nM
- Timing: LPS for 4 h, given about 3 days after siRNA transfection
- Conditions: bacterial LPS (TLR4 ligand), 10 ng/ml
- Detection: 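Ratio of firefly to renilla light, scaled to the plate median and expressed as a robust z-score per replicate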
- Scale: TNF reporter robust z-score: higher = stronger TNF reporter response to LPS
- Rule for the call: 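a well is active when its z-score exceeds 2.8 or falls below -1.5; control wells carry no call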
Here is a random part of about 18,000 reagents tested. In the full data, about 2,900 (16%) got an active call. 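Calls are made per well; low scores hint the gene aids the LPS response, high scores that it dampens it.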 Repeated entries: four replicate wells of each siRNA pool. Reagent sequences are not shown.

{"gene knocked down": "ZNF618", "TNF reporter robust z-score": -0.14, "call": "inactive"}
{"gene knocked down": "ZNF618", "TNF reporter robust z-score": 0, "call": "inactive"}
{"gene knocked down": "ZNF618", "TNF reporter robust z-score": -0.38, "call": "inactive"}
{"gene knocked down": "ZNF618", "TNF reporter robust z-score": 1.04, "call": "inactive"}
{"gene knocked down": "LOC100288884", "TNF reporter robust z-score": -0.03, "call": "inactive"}
{"gene knocked down": "LOC100288884", "TNF reporter robust z-score": -0.08, "call": "inactive"}
{"gene knocked down": "LOC100288884", "TNF reporter robust z-score": 0.01, "call": "inactive"}
{"gene knocked down": "LOC100288884", "TNF reporter robust z-score": 0.07, "call": "inactive"}
{"gene knocked down": "FIZ1", "TNF reporter robust z-score": -0.55, "call": "inactive"}
{"gene knocked down": "FIZ1", "TNF reporter robust z-score": -0.19, "call": "inactive"}
{"gene knocked down": "FIZ1", "TNF reporter robust z-score": -1.67, "call": "active"}
{"gene knocked down": "NBEA", "TNF reporter robust z-score": -1.17, "call": "inactive"}
{"gene knocked down": "NBEA", "TNF reporter robust z-score": 2.21, "call": "inactive"}
{"gene knocked down": "NBEA", "TNF reporter robust z-score": 0.85, "call": "inactive"}
{"gene knocked down": "NBEA", "TNF reporter robust z-score": 4.23, "call": "active"}
{"gene knocked down": "C2orf42", "TNF reporter robust z-score": -1.12, "call": "inactive"}
{"gene knocked down": "C2orf42", "TNF reporter robust z-score": -0.19, "call": "inactive"}
{"gene knocked down": "C2orf42", "TNF reporter robust z-score": -0.57, "call": "inactive"}
{"gene knocked down": "C2orf42", "TNF reporter robust z-score": -0.37, "call": "inactive"}
{"gene knocked down": "CRACR2B", "TNF reporter robust z-score": -0.77, "call": "inactive"}
{"gene knocked down": "CRACR2B", "TNF reporter robust z-score": 0.13, "call": "inactive"}
{"gene knocked down": "CRACR2B", "TNF reporter robust z-score": -0.6, "call": "inactive"}
{"gene knocked down": "LPCAT4", "TNF reporter robust z-score": -1.76, "call": "active"}
{"gene knocked down": "LPCAT4", "TNF reporter robust z-score": -1.71, "call": "active"}
{"gene knocked down": "LPCAT4", "TNF reporter robust z-score": -1.19, "call": "inactive"}
{"gene knocked down": "LPCAT4", "TNF reporter robust z-score": -0.77, "call": "inactive"}
{"gene knocked down": "LHFPL5", "TNF reporter robust z-score": -0.08, "call": "inactive"}
{"gene knocked down": "LHFPL5", "TNF reporter robust z-score": 0.73, "call": "inactive"}
{"gene knocked down": "LHFPL5", "TNF reporter robust z-score": -0.11, "call": "inactive"}
{"gene knocked down": "LHFPL5", "TNF reporter robust z-score": 0.95, "call": "inactive"}
{"gene knocked down": "LCE2D", "TNF reporter robust z-score": -0.41, "call": "inactive"}
{"gene knocked down": "LCE2D", "TNF reporter robust z-score": 1.49, "call": "inactive"}
{"gene knocked down": "LCE2D", "TNF reporter robust z-score": 0.5, "call": "inactive"}
{"gene knocked down": "LCE2D", "TNF reporter robust z-score": 2.88, "call": "active"}
